Source: patent publication EP4725551A1, “FUSION POLYPEPTIDE AJ007 AND USE THEREOF” (Nanjing Anji Biotechnology Co., Ltd., priority 2023, dated 2026)
Part of at least one peptide drawing is inferred or uncertain, most often the ends. Residues, ends and D or L forms follow the SMILES beside them.

How the values were obtained:
Type in all cases: in vivo, C57BL/6J mice
wAMD mouse model [1] = assay: Laser-induced CNV model, FFA examination of CNV leakage (Example 4); details: eye drops 5 times a day, 5 µL, FFA on day 3
wAMD mouse model [2] = assay: Laser-induced CNV model, FITC-dextran flat-mount staining of CNV area (Example 4); details: eye drops 5 times a day for 7 days, day 7
wAMD mouse model [3] = assay: Laser-induced CNV model at equimolar concentration, FFA examination of CNV leakage (Example 6); details: FFA on day 3
wAMD mouse model [4] = assay: Laser-induced CNV model at equimolar concentration, FITC-dextran flat-mount staining of CNV area (Example 6); details: day 7
[5] = intravitreal injection, 8.76 mg/mL, 5 µL per eye

## C[C@H](NC(=O)CNC(=O)[C@@H](N)CCCNC(=N)N)C(=O)N[C@@H](CC(=O)O)C(=O)N[C@@H](CCCNC(=N)N)C(=O)N[C@@H](C)C(=O)NCC(=O)NCC(=O)NCC(=O)NCC(=O)N[C@@H](CCCNC(=N)N)C(=O)NCC(=O)N[C@@H](CC(=O)O)C(=O)O [HM-1, Arg-Gly-Ala-Asp-Arg-Ala-Gly-Gly-Gly-Gly-Arg-Gly-Asp] (H-RGADRAGGGGRGD-OH)
wAMD mouse model [1]; high-dose 80 mg/mL
  laser-induced CNV leakage (FFA): cannot significantly improve laser-induced CNV leakage
wAMD mouse model [1]; low-dose 20 mg/mL
  laser-induced CNV leakage (FFA): cannot significantly improve laser-induced CNV leakage
wAMD mouse model [2]; high-dose 80 mg/mL
  laser-induced CNV area (FITC-dextran flat-mount staining): can partially reduce the CNV area
wAMD mouse model [2]; low-dose 20 mg/mL
  laser-induced CNV area (FITC-dextran flat-mount staining): cannot reduce the laser-induced CNV area
wAMD mouse model [3]; eye dropping 5 times a day, 5 µL, equimolar (HM-1 8.76 mg/mL; AJ007 20 mg/mL)
  laser-induced CNV leakage (FFA): cannot significantly improve laser-induced CNV leakage
wAMD mouse model [3]; [5]
  laser-induced CNV leakage (FFA): can significantly improve CNV leakage
wAMD mouse model [4]; eye dropping 5 times a day for 7 days, equimolar (HM-1 8.76 mg/mL; AJ007 20 mg/mL)
  laser-induced CNV area (FITC-dextran flat-mount staining): cannot reduce the laser-induced CNV area
wAMD mouse model [4]; [5]
  laser-induced CNV area (FITC-dextran flat-mount staining): can greatly reduce the CNV area
